Test results as given in PMC10582172.
Results are given in words; binding and its absence hold for the method and conditions named.

The chains behind the UniProt entries cited, without tags or fusion partners.
UniProt Q9V9J3: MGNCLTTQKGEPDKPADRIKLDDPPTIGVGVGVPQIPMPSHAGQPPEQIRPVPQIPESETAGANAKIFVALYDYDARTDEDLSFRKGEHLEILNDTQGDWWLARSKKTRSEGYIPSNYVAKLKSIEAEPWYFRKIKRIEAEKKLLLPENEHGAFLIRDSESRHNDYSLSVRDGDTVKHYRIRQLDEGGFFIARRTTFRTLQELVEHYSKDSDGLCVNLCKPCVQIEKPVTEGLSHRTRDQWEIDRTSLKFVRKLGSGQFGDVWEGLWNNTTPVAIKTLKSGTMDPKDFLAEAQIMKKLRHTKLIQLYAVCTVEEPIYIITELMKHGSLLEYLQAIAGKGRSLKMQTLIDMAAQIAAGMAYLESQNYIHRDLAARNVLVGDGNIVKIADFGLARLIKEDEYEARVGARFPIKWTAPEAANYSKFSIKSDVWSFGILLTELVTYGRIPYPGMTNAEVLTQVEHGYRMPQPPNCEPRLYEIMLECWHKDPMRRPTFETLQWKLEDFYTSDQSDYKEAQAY

Columns and labels:
[1] = target: Drosophila Src42A, full-length (aa 1-517), autophosphorylated (Drosophila) (UniProt Q9V9J3); test: SEC-MALS; protein sample 0.2 mg/ml on Superdex 200 Increase 10/300 in 20 mM Tris, 150 mM NaCl, 1 mM DTT, 5% glycerol; unphosphorylated and autophosphorylated samples; both purified
[2] = target: Drosophila c-Src homolog Src42A, full-length (aa 1-517) (Drosophila) (UniProt Q9V9J3); test: as above

Row | Substance | binding [1] | binding [2]
1 | Drosophila Src42A, full-length (aa 1-517), autophosphorylated (from UniProt Q9V9J3 1-517) | no binding (tested: 0.2 mg/ml) | –
2 | Drosophila c-Src homolog Src42A, full-length (aa 1-517) (from UniProt Q9V9J3 1-517) | – | no binding (tested: 0.2 mg/ml)
